Test results published in publication PMC7726150.
Results are given in words; binding and its absence hold for the method and conditions named. In cells and extracts the contact can be indirect. These calls come from enrichment with a bait or labelling near it, and not all partners need be listed.

Protein sequences, listed by entry. Tags and fused reporters are not part of them. Lines headed by an entry give the natural chain unless they say otherwise; changes in a name come on top. Residues count along the entry.
UniProt O75581, residues 20-1613: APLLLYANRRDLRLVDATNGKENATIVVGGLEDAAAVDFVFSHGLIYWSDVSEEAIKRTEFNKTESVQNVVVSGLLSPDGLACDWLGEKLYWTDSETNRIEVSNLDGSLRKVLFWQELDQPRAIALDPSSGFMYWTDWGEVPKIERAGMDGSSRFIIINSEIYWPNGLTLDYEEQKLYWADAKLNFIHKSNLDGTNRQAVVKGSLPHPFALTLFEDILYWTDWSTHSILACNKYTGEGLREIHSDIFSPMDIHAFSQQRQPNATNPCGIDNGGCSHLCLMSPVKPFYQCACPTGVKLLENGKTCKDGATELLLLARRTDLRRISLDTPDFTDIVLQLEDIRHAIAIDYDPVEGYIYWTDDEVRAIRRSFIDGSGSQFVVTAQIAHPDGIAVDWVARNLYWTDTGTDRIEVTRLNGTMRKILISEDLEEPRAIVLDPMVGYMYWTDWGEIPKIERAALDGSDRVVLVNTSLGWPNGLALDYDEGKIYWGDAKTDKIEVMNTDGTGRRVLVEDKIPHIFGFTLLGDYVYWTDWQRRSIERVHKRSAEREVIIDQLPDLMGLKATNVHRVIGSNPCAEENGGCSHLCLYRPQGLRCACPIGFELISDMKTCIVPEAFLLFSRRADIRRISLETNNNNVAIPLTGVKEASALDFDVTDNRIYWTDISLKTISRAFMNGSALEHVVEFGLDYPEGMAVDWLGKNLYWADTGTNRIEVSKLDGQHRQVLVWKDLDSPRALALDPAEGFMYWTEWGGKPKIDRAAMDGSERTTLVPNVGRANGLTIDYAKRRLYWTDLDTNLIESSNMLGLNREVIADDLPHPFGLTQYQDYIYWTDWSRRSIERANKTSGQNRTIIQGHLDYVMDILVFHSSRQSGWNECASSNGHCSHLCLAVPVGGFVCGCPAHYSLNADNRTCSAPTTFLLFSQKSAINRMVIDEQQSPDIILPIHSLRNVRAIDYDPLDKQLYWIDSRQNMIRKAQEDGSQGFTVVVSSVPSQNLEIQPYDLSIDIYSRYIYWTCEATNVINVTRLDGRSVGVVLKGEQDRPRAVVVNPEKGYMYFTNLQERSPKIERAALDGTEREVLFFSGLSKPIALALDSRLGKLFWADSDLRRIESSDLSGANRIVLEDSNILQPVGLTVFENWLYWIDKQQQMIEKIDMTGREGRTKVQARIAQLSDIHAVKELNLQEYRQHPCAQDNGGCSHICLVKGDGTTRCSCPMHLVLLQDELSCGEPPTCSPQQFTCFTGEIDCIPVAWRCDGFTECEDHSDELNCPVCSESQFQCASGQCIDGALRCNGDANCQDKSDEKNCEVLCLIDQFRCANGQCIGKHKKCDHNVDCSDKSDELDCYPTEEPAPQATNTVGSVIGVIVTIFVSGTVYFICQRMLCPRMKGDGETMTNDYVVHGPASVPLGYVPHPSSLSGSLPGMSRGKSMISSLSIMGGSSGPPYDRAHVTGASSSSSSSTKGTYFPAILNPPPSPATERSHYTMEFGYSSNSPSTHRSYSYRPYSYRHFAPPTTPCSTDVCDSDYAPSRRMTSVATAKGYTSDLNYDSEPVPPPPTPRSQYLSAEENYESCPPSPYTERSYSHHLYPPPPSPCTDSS
UniProt Q9UQB8: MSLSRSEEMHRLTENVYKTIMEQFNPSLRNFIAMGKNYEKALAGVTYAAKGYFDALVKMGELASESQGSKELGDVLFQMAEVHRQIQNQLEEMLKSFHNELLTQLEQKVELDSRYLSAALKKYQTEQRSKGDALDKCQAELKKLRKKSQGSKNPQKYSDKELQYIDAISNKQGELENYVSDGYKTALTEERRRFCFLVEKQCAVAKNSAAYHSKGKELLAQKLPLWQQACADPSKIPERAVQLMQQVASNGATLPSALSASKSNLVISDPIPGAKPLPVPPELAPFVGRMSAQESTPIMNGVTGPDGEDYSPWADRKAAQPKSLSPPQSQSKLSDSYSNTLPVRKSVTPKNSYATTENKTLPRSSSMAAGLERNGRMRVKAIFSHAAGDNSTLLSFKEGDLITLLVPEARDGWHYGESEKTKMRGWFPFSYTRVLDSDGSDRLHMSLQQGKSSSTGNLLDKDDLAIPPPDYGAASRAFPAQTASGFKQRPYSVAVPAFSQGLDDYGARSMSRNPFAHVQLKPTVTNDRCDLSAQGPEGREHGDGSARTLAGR
UniProt Q9UK41: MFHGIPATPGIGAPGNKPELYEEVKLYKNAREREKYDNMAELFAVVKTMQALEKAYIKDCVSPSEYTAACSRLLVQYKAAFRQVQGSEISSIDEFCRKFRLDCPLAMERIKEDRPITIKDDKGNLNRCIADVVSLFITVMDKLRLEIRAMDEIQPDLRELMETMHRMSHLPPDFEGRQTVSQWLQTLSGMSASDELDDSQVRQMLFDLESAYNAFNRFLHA
UniProt Q99816: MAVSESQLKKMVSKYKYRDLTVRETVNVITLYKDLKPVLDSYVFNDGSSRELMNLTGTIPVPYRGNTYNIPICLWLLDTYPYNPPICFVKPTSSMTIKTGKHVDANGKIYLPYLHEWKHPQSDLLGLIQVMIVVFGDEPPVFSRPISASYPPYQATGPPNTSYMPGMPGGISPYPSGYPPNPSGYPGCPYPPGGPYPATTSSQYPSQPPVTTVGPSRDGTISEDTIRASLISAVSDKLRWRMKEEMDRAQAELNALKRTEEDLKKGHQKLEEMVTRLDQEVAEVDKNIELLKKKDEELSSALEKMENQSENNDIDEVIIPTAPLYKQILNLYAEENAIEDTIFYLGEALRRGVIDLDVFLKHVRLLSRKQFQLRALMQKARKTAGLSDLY
UniProt Q9C0C2: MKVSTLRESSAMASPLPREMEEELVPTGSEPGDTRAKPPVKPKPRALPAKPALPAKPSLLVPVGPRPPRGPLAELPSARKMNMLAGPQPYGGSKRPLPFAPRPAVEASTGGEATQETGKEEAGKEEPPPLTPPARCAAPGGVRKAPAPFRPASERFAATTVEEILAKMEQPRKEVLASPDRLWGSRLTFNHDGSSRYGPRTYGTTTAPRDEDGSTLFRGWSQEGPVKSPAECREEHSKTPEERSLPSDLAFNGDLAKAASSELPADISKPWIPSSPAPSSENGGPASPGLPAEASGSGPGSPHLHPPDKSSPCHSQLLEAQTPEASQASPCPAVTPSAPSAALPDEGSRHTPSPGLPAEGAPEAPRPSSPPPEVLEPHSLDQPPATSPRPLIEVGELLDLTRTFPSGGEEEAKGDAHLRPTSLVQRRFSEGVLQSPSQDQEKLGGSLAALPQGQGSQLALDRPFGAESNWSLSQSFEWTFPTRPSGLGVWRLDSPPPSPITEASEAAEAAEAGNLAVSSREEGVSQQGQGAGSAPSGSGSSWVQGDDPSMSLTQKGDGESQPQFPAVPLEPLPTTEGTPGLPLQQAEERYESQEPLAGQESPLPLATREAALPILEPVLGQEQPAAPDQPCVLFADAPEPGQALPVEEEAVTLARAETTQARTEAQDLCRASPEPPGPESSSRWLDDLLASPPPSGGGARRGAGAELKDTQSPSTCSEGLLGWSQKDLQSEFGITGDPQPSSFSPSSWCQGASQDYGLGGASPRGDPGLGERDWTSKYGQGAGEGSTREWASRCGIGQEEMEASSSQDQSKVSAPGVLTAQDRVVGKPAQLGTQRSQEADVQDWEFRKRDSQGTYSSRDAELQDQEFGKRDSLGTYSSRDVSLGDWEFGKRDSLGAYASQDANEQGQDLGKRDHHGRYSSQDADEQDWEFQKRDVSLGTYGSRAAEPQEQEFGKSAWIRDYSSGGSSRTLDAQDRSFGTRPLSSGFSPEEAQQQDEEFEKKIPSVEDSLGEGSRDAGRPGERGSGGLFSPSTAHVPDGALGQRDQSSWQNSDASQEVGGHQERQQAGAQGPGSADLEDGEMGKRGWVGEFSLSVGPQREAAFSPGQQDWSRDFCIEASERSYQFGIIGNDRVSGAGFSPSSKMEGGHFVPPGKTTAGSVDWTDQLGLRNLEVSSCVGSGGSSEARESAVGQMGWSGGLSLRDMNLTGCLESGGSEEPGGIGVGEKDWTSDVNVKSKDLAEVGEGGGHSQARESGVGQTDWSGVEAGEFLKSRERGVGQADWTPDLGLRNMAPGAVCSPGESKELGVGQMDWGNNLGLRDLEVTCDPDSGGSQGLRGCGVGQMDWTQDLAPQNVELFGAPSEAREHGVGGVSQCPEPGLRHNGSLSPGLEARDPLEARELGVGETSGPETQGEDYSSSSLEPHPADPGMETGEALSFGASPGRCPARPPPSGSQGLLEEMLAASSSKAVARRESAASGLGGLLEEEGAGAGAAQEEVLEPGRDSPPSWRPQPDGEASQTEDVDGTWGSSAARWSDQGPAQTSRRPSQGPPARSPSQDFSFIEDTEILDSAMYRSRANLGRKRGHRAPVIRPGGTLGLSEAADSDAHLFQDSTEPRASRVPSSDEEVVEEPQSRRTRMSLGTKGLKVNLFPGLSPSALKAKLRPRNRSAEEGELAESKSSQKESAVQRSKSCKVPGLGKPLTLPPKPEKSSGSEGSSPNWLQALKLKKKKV
UniProt Q92783: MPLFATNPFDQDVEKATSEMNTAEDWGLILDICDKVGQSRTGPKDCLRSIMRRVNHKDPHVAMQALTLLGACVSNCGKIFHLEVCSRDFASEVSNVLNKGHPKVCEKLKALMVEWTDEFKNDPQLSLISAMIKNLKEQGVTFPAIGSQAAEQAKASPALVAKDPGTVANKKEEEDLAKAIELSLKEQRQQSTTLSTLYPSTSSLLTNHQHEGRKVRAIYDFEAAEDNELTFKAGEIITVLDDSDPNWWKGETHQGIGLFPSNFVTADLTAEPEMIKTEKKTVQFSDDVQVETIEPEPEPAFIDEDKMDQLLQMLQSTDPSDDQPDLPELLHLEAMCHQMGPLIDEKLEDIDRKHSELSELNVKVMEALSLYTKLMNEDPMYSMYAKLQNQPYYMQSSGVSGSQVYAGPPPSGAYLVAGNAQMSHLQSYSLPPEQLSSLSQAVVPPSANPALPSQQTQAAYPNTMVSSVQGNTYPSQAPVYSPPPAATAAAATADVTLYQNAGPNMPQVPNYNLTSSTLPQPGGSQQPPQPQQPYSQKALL
UniProt O14964: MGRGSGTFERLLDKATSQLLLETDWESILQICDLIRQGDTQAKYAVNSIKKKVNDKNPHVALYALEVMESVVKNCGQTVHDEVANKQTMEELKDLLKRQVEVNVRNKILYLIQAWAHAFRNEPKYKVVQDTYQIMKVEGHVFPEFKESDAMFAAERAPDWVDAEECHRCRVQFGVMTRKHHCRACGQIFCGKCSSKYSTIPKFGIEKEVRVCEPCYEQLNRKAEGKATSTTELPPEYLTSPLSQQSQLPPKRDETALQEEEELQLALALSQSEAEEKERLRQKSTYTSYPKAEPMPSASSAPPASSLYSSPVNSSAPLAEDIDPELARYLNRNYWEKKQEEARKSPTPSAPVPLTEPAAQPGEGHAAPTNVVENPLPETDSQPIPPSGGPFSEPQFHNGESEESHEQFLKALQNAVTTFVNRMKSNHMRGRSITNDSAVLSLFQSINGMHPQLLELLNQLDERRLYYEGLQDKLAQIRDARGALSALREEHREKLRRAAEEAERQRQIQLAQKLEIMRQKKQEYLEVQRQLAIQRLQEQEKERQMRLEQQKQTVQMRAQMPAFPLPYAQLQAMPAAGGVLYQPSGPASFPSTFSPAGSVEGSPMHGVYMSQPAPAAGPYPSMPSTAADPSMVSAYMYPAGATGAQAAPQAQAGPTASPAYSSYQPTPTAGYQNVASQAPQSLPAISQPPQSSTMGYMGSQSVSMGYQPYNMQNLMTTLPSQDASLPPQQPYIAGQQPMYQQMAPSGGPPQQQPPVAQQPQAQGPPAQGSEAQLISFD
UniProt O00151: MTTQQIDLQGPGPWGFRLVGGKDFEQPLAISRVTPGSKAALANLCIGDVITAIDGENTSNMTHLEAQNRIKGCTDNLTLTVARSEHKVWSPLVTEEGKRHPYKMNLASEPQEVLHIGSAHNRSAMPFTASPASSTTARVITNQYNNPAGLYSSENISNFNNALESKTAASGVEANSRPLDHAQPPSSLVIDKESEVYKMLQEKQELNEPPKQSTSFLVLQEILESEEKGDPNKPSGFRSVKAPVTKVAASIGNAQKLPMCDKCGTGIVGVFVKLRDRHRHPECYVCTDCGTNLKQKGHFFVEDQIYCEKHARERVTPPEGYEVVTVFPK

B1: Dishevelled 1 (Dvl1) (protein, UniProt O14640 1-695)
chain: MAETKIIYHMDEEETPYLVKLPVAPERVTLADFKNVLSNRPVHAYKFFFKSMDQDFGVVKEEIFDDNAKLPCFNGRVVSWLVLAEGAHSDAGSQGTDSHTDLPPPLERTGGIGDSRPPSFHPNVASSRDGMDNETGTESMVSHRRERARRRNREEAARTNGHPRGDRRRDVGLPPDSASTALSSELESSSFVDSDEDGSTSRLSSSTEQSTSSRLIRKHKRRRRKQRLRQADRASSFSSITDSTMSLNIVTVTLNMERHHFLGISIVGQSNDRGDGGIYIGSIMKGGAVAADGRIEPGDMLLQVNDVNFENMSNDDAVRVLREIVSQTGPISLTVAKCWDPTPRSYFTVPRADPVRPIDPAAWLSHTAALTGALPRYGTSPCSSAVTRTSSSSLTSSVPGAPQLEEAPLTVKSDMSAVVRVMQLPDSGLEIRDRMWLKITIANAVIGADVVDWLYTHVEGFKERREARKYASSLLKHGFLRHTVNKITFSEQCYYVFGDLCSNLATLNLNSGSSGTSDQDTLAPLPHPAAPWPLGQGYPYQYPGPPPCFPPAYQDPGFSYGSGSTGSQQSEGSKSSGSTRSSRRAPGREKERRAAGAGGSGSESDHTAPSGVGSSWRERPAGQLSRGSSPRSQASATAPGLPPPHPTTKAYTVVGGPPGGPPVRELAAVPPELTGSRQSFQKAMGNPCEFFVDIM
B2: LASP1 (protein, UniProt Q14847 1-261)
chain: MNPNCARCGKIVYPTEKVNCLDKFWHKACFHCETCKMTLNMKNYKGYEKKPYCNAHYPKQSFTMVADTPENLRLKQQSELQSQVRYKEEFEKNKGKGFSVVADTPELQRIKKTQDQISNIKYHEEFEKSRMGPSGGEGMEPERRDSQDGSSYRRPLEQQQPHHIPTSAPVYQQPQQQPVAQSYGGYKEPAAPVSIQRSAPGGGGKRYRAVYDYSAADEDEVSFQDGDTIVNVQQIDDGWMYGTVERTGDTGMLPANYVEAI

What follows are molecules tested against Lrp6-APEX2 chimeric receptor (human) (UniProt O75581) (assay: proximity labelling; Lrp6-APEX2 HEK293T stable cells preincubated with Porcupine inhibitor (IWP-2), 30 min biotin-phenol, then control or Wnt3a conditioned medium with 50 ng/ml R-Spo1 and 2 for 5 or 20 min, 1 min H2O2; lysis, streptavidin pull-down of biotinylated proteins, MS/MS; biological duplicates).

binding, binds:
BAIAP2 (from UniProt Q9UQB8 1-552)
Vps28 (from UniProt Q9UK41 1-221)
Tsg101 (from UniProt Q99816 1-390)
Tankyrase-1 binding protein (from UniProt Q9C0C2 1-1729)
Dishevelled 2 (Dvl2) (from UniProt O14641 1-736)
Kras (from UniProt P01116 1-189)
Stam1 (from UniProt Q92783 1-540)
Hrs/Hgs (from UniProt O14964 1-777)
PDLIM1 (from UniProt O00151 1-329)
B1
B2
